Source: PubChem BioAssay AID1259405 (NCATS, 2018)
Shown is an unselected part of about 50,000 deposited reagents. About 4,000 of them (8%) count as active. 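Mouse siRNA library applied to hamster cells; one well for each siRNA.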

Test: 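Knock-downs that lift recombinant protein yield in hamster ovary cells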 (primary screen)
Cell system: Chinese hamster CHO-K1 ovary cells with stable secreted eGFP expression
Knock-down reagent: single siRNA against mouse genes, 0.8 pmol siRNA per well (2 µl of 400 nM stock)
Duration: 3 days
Detection: 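Per-well intracellular GFP measured by laser scanning cytometry, plus viability from ATP luminescence, each relative to plate median of non-targeting control wells, in %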
Direction: GFP, % of control: higher = more GFP per well, higher productivity; viability (ATP), % of control: higher = more viable cells (more ATP)
Hit rule: 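Called active when intracellular GFP, relative to negative control, is at or above 120%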

gene	PubChem SID	GFP, % of control	viability (ATP), % of control	Outcome
Rdh9	SID363545370	67.6	47.5	inactive
Rdh9	SID363548883	64.9	89.8	inactive
Rdh9	SID363562689	28	41.3	inactive
Por	SID363572976	41.9	81.7	inactive
Por	SID363577552	87.7	45.5	inactive
Por	SID363581072	79.2	64.9	inactive
Igsf3	SID363540353	97.7	85.2	inactive
Igsf3	SID363542105	52.7	58.2	inactive
Igsf3	SID363567021	89	92.6	inactive
Tnfrsf25	SID363568812	112	102	inactive
Tnfrsf25	SID363576204	74.6	91.5	inactive
Tnfrsf25	SID363579020	94.7	80.9	inactive
Sncb	SID363553712	58.2	39.9	inactive
Sncb	SID363561669	116	74.1	inactive
Sncb	SID363565407	103	66.8	inactive
Dennd11	SID363539811	57	78.2	inactive
Dennd11	SID363561112	84.8	91.9	inactive
Dennd11	SID363565202	58.4	59.9	inactive
Trim21	SID363572688	60.5	68.5	inactive
Trim21	SID363577968	97.5	106	inactive
Trim21	SID363582192	76.9	117	inactive
Nudt8	SID363547706	95.1	79	inactive
Nudt8	SID363558475	57.8	78.6	inactive
Nudt8	SID363560233	109	91.6	inactive
Krtap5-1	SID363541027	73.7	58.2	inactive
Krtap5-1	SID363555654	114	101	inactive
Krtap5-1	SID363565943	61	75.4	inactive
Gabarapl1	SID363572439	67.8	70.5	inactive
Gabarapl1	SID363574199	105	94.5	inactive
Gckr	SID363581890	113	93	inactive
Gckr	SID363589384	324	83.3	active
Gckr	SID363589652	122	97.7	active
Gckr	SID363589653	85.7	77.6	inactive
Gckr	SID363589654	324	83.3	active

Records above whose target name begins with P or p (3):
gene	PubChem SID	GFP, % of control	viability (ATP), % of control	Outcome
Por	SID363572976	41.9	81.7	inactive
Por	SID363577552	87.7	45.5	inactive
Por	SID363581072	79.2	64.9	inactive
